Results published in patent publication US20250109127A1, “METHODS OF USE OF PHENOXYPROPYLAMINE COMPOUNDS TO TREAT DEPRESSION” (Minerva Neurosciences, Inc., priority 2013, published 2025).
Several values for one entry are separate records, joined by “and”; a condition that tells them apart may be missing. Equal values may be shown once. Where a name gives a salt, the structure may show the parent alone. Further values from the same series stand in other lists.

Key:
Type in all cases: in vivo
[1] = tested on: 5-HIAA release in the rat prefrontal cortex; experiment: Microdialysis: 5-HIAA release in prefrontal cortex after I.P. administration; settings: SON-117 3 mg/kg IP, individual animals, hydrochloride, 3 mg/kg
Procedure: (§1) The aim of the study was to evaluate, using microdialysis, the effects of an intraperitoneal (I.P.) administration in rats of three different doses of SON-117 on dopamine and its metabolites, serotonin and its metabolite (5-HIAA), and norepinephrine levels in prefrontal cortex.
(§2) Thirty-two adult male Wistar rats were used for the whole study (4 groups of eight animals planned for the study, Table 1).
(§3) Surgery was performed on rats weighing about 300 g at the beginning of the experiments. Rats were anaesthetized with Ketamine (50 mg/kg) & Xylazine (15 mg/kg) by intramuscular administration. The animals were placed in a stereotaxic apparatus in the flat-skull position at a constant setting of −3.3 mm between ear bars and the incisor bar. The animals were treated with a local anesthesic (xylocaine 1%, Astra Zeneca) and an analgesic (Temgesic, from Schering Plough, 0.05 mg/kg, s.c.). A rostrocaudal midline incision was made with a lancet to expose the dorsal skull surface. The “stereotaxic zero” was defined by the Bregma in accordance with Paxinos and Watson's atlas (1986). A hole was drilled in the skull with a drill and the meninges were pierced with a sterile needle to implant a CMA12 guide cannula which later received the dialysis probe.
(§4) Coordinates used for implanting guide cannula in prefrontal cortex from Bregma were anteroposterior 3.7 mm, mediolateral 0.8 mm, and dorsoventral −2 mm (top of the probe was at −5 mm). The guide cannula was fixed to the skull with two stainless steel screws (1.88 mm outside diameter) anchored. An application of dental cement was added. A plastic collar allowed each animal to be tethered to a Swivel assembly of the CMA 120 awake animal system. Following surgery, rats were kept in individual cages and allowed to recover for a minimum of 3-5 days before the experimentation. The rats were handled and put in plastic bowl for 10 min at least every day to habituate the animals to their new environment for the dialysis. An I.P. administration with saline was also performed every day.
(§5) Dialysis probes (CMA12/3 mm, membrane, 20 kD cut-off, Carnegie Medicine, Stockholm, Sweden), were carefully washed before inserting into the guide cannula. The wash was performed with the artificial cerebrospinal fluid (aCSF) medium (NaCl 147 mM, KCl 2.7 mM, CaCl2 1.2 mM, MgCl2 0.85 mM) at room temperature. The dialysis system was then equilibrated at 20° C. at a perfusion rate of 1 μl/min with a Carnegie pump (CMA100). All catheters (FEP tubing, internal volume of 1.2 μl/10 cm, and tubing adaptors) used for microdialysis were treated in the same conditions.
(§6) The probes duly prepared were inserted into the guide cannula and the CMA120 Swivel assembly secured to the animal using a plastic collar. Flow through the dialysis probe with aCSF was maintained at a rate of 1 μl/min during the whole experimentation. The first four fractions (corresponding to 2 hours) were discarded to avoid the effects of parenchymal disturbance and to ensure that an approximate steady-state level was reached. Fractions were then collected over a period of 8.5 h during which time the animals remained quiet. The dialysates were automatically collected with an autosampler (microfraction collector CMA 140, Carnegie Medicin) and stored at −80° C. until analysis. […] Perfusion was then maintained for 7 hours with aCSF. The dialysates (30 μl) were collected into 300 μl vials, transferred into dry ice and then kept frozen (−80° C.) until analysis. Frozen samples were shipped to a partner for analysis. At the end of the microdialysis study, a PBS with colored ink was perfused through the probe in order to visualize the dialyzed area.
(§7) Catecholamine assay: Concentrations of dopamine, DOPAC, HVA, 5-HIAA, 5-HT, and norepinephrin were determined for each sample by HPLC coupled with electrochemical detection.

[2] = tested on: 5-HT release in the rat prefrontal cortex; experiment: Microdialysis: 5-HT release in prefrontal cortex after I.P. administration; settings: hydrochloride; for 5-HT (% of respective basal), individual animal: 0.1 mg/kg I.P., c2-c9 = R#13,14,20,19,25,26,31,32; for 5-HT release, individual animals: 0.3 mg/kg I.P., one column per animal R#11,12,18,23,29,30,17,24; for 5-HT release (% of basal levels) measured in dialysates: SON-117 3 mg/kg IP, individual animals, 3 mg/kg
Procedure: as §1, §2, §3, §4, §5, §6
Catecholamine assay: Concentrations of dopamine, DOPAC, HVA, 5-HIAA, 5-HT, and norepinephrin were determined for each sample by HPLC coupled with electrochemical detection. […]

[3] = tested on: dopamine release in the rat prefrontal cortex; experiment: Microdialysis: dopamine release in prefrontal cortex after I.P. administration; settings: hydrochloride; for DOPAMINE (% of respective basal), individual animal: 0.1 mg/kg I.P., c2-c9 = R#13,14,20,19,25,26,31,32; for Dopamine release, individual animals: 0.3 mg/kg I.P., one column per animal R#11,12,18,23,29,30,17,24
Procedure: as §1, §2, §3, §4, §5, §6, §7

[4] = T-30 min-T0 (pre-administration)
[5] = T-1 h 30-T-1 h (pre-administration)
[6] = T-1 h-T-30 min (pre-administration)
[7] = T-30 min-T0 (before administration)
[8] = T-1 h 30-T-1 h (before administration)
[9] = T-1 h-T-30 min (before administration)

Cc1nnc(-c2cc3c(OC[C@@H](O)CN4CCC(c5ccc(Cl)c(Cl)c5)CC4)cccc3o2)o1 [SON-117, (S)-1-(4-(3,4-dichlorophenyl)piperidino)-3-(2-(5-methyl-1,3,4-oxadiazol-2-yl)benzo(b)furan-4-yloxy)-2-propanol hydrochloride]
5-HIAA release (% of basal levels) measured in dialysates [1, 4]: 105.11 % of basal levels and 94.02 % of basal levels and 109.01 % of basal levels and 102.99 % of basal levels and 104.67 % of basal levels and 104.95 % of basal levels and 100.33 % of basal levels and 102.08 % of basal levels
5-HIAA release (% of basal levels) measured in dialysates [1, 5]: 93.32 % of basal levels and 102.17 % of basal levels and 94.03 % of basal levels and 87.44 % of basal levels and 89.69 % of basal levels and 98.75 % of basal levels and 100.94 % of basal levels and 91.52 % of basal levels
5-HIAA release (% of basal levels) measured in dialysates [1, 6]: 101.57 % of basal levels and 103.81 % of basal levels and 96.95 % of basal levels and 109.57 % of basal levels and 105.64 % of basal levels and 96.30 % of basal levels and 98.73 % of basal levels and 106.40 % of basal levels
5-HT (% of respective basal), individual animal ([2]; T0-T30 min): 108.02 % of respective basal and 93.83 % of respective basal and 119.32 % of respective basal and 246.92 % of respective basal and 107.34 % of respective basal and 97.92 % of respective basal
5-HT (% of respective basal), individual animal ([2]; T6 h 30-T7 h): 97.91 % of respective basal and 541.29 % of respective basal and 114.61 % of respective basal and 244.32 % of respective basal
5-HT (% of respective basal), individual animal [2, 7]: 92.16 % of respective basal and 110.89 % of respective basal and 99.40 % of respective basal and 99.09 % of respective basal and 161.58 % of respective basal and 143.66 % of respective basal and 98.90 % of respective basal and 95.76 % of respective basal
5-HT (% of respective basal), individual animal [2, 8]: 108.25 % of respective basal and 86.31 % of respective basal and 94.30 % of respective basal and 103.54 % of respective basal and 24.35 % of respective basal and 38.46 % of respective basal and 95.89 % of respective basal and 93.96 % of respective basal
5-HT (% of respective basal), individual animal [2, 9]: 99.35 % of respective basal and 103.83 % of respective basal and 106.58 % of respective basal and 97.86 % of respective basal and 112.18 % of respective basal and 115.38 % of respective basal and 104.67 % of respective basal and 110.26 % of respective basal
5-HT release, individual animals ([2]; T0-T30 min): 129.03 % of respective basal and 89.70 % of respective basal and 92.85 % of respective basal and 99.56 % of respective basal and 102.65 % of respective basal and 301.33 % of respective basal and 98.83 % of respective basal and 43.23 % of respective basal
5-HT release, individual animals ([2]; T6 h 30-T7 h): 33.37 % of respective basal and 136.61 % of respective basal
5-HT release, individual animals [2, 7]: 73.58 % of respective basal and 119.76 % of respective basal and 102.47 % of respective basal and 102.92 % of respective basal and 109.00 % of respective basal and 97.01 % of respective basal and 104.74 % of respective basal and 45.92 % of respective basal
5-HT release, individual animals [2, 8]: 107.47 % of respective basal and 111.64 % of respective basal and 94.68 % of respective basal and 96.44 % of respective basal and 95.50 % of respective basal and 88.09 % of respective basal and 102.83 % of respective basal and 104.31 % of respective basal
5-HT release, individual animals [2, 9]: 118.31 % of respective basal and 68.82 % of respective basal and 102.81 % of respective basal and 100.54 % of respective basal and 94.29 % of respective basal and 107.10 % of respective basal and 92.03 % of respective basal and 149.23 % of respective basal
5-HT release (% of basal levels) measured in dialysates ([2]; T0-T30 min): 117.39 % of basal levels and 72.52 % of basal levels and 149.42 % of basal levels and 116.55 % of basal levels and 111.21 % of basal levels and 77.19 % of basal levels and 74.89 % of basal levels and 87.15 % of basal levels
5-HT release (% of basal levels) measured in dialysates [2, 4]: 101.51 % of basal levels and 110.85 % of basal levels and 101.71 % of basal levels and 106.95 % of basal levels and 101.32 % of basal levels and 73.17 % of basal levels and 75.35 % of basal levels and 105.70 % of basal levels
5-HT release (% of basal levels) measured in dialysates [2, 5]: 85.69 % of basal levels and 94.52 % of basal levels and 121.70 % of basal levels and 128.21 % of basal levels and 99.68 % of basal levels
5-HT release (% of basal levels) measured in dialysates [2, 6]: 93.84 % of basal levels and 104.92 % of basal levels and 108.54 % of basal levels and 106.54 % of basal levels and 103.87 % of basal levels and 105.82 % of basal levels and 105.7 % of basal levels and 94.09 % of basal levels
DOPAMINE (% of respective basal), individual animal ([3]; T0-T30 min): 425.25 % of respective basal and 128.6 % of respective basal and 10.85 % of respective basal and 104.55 % of respective basal and 25.10 % of respective basal and 105.91 % of respective basal
DOPAMINE (% of respective basal), individual animal ([3]; T6 h 30-T7 h): 74.20 % of respective basal and 156.19 % of respective basal
DOPAMINE (% of respective basal), individual animal [3, 7]: 141.04 % of respective basal and 122.7 % of respective basal and 58.40 % of respective basal and 93.07 % of respective basal and 137.55 % of respective basal and 113.712 % of respective basal and 70.16 % of respective basal and 104.79 % of respective basal
DOPAMINE (% of respective basal), individual animal [3, 8]: 50.85 % of respective basal and 96.94 % of respective basal and 172.62 % of respective basal and 109.45 % of respective basal and 84.95 % of respective basal and 109.18 % of respective basal and 77.23 % of respective basal and 105.99 % of respective basal
DOPAMINE (% of respective basal), individual animal [3, 9]: 104.72 % of respective basal and 77.56 % of respective basal and 58.40 % of respective basal and 93.71 % of respective basal and 71.40 % of respective basal and 84.33 % of respective basal and 151.7 % of respective basal and 89.85 % of respective basal
Dopamine release, individual animals ([3]; T0-T30 min): 81.30 % of respective basal and 47.89 % of respective basal and 173.04 % of respective basal and 102.11 % of respective basal and 55.97 % of respective basal and 313.80 % of respective basal and 73.51 % of respective basal and 178.31 % of respective basal
Dopamine release, individual animals ([3]; T6 h 30-T7 h): 221.99 % of respective basal and 1040.88 % of respective basal
Dopamine release, individual animals [3, 7]: 58.26 % of respective basal and 98.44 % of respective basal and 100.20 % of respective basal and 137.38 % of respective basal and 158.31 % of respective basal and 39.00 % of respective basal and 109.91 % of respective basal
Dopamine release, individual animals [3, 8]: 116.63 % of respective basal and 114.28 % of respective basal and 117.80 % of respective basal and 100.58 % of respective basal and 88.62 % of respective basal and 71.05 % of respective basal and 133.14 % of respective basal and 92.02 % of respective basal
Dopamine release, individual animals [3, 9]: 128.22 % of respective basal and 86.21 % of respective basal and 90.69 % of respective basal and 98.85 % of respective basal and 82.85 % of respective basal and 74.43 % of respective basal and 130.40 % of respective basal and 97.61 % of respective basal
